# Results reported in US7485619B2, “Antimicrobial agent” (priority 2005, dated 2009).
# At least one compound was matched to its structure with a doubt left.
# Tested on: methicillin-resistant Staphylococcus aureus (ATCC 700698)
# Type: cell-based
# Experimental: E. coli (ATCC 20922) (5×10^5 cells) in 100 μL of 10 mM Phosphate Buffer, pH 7.0 containing mucocidin peptide concentration of 5, 10, 15, 20, or 50 μM was incubated for an hour. Then, it was diluted 200 fold with the same buffer and 300 μL aliquots (approx. 750 cells) were plated on 150 mm LB plate and grown overnight at 37° C. The grown colonies were counted. The cell viability was estimated by the percent of colony forming units. Staphylococcus aureus (ATCC 25923) and methicillin resistant Staphylococcus aureus (MRSA) (ATCC 700698) were incubated with mucocidin concentration up to 5 μM. Candida albicans (ATCC 10231) were incubated with mucocidin concentration levels up to 50 μM^44.
smiles,measurement,value
"NC[C@H]1O[C@H](O[C@H]2[C@H](O)[C@@H](O[C@H]3O[C@H](CO)[C@@H](O)[C@H](N)[C@H]3O)[C@H](N)C[C@@H]2N)[C@H](O)[C@@H](O)[C@@H]1O [kanamycin, reference compound]",sensitivity of methicillin-resistant Staphylococcus aureus (in words),insensitive
